Data as given in PubChem BioAssay AID504808 (Drosophila RNAi Screening Center, 2011)
The screen tested about 21,000 reagents; below is an unselected part of those with a known target gene and a result. Of all reagents, 18 (0.084%) were called active. 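Raw counts without plate normalisation, one of two replicates; the ratio scores behind the calls were not deposited.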 A plus sign joins genes that one reagent is predicted to hit. Not stated in the record: the amount of reagent, the time to read-out.

- Aim: 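Genes whose loss lifts activity of an E2F-responsive reporter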 (primary screen)
- Cells: Drosophila S2 cells
- Reagents: long dsRNA against Drosophila genes
- Measurement: 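Firefly luciferase driven by E2F sites, normalised to Renilla luciferase on the same minimal promoter, measured by plate reader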
- Scale: E2F firefly: higher = more E2F reporter activity; Renilla normaliser: higher = more normaliser reporter signal
- Rule for the call: 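Called active if the normalised E2F reporter went up by over 50%; the cutoff is arbitrary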

| E2F firefly, rep 1 | Renilla normaliser, rep 1 | Call | target | dsRNA |
| --- | --- | --- | --- | --- |
| 1.58e5 | 5955 | inactive | CG31659 | DRSC00760 |
| 85481 | 3522 | inactive | CG9953 | DRSC11106 |
| 68506 | 3212 | inactive | cav | DRSC15995 |
| 85611 | 3543 | inactive | CG9171 | DRSC03152 |
| 1.26e5 | 6811 | inactive | fit | DRSC15280 |
| 1.59e5 | 6517 | inactive | Sirt6 | DRSC16010 |
| 1.39e5 | 6210 | inactive | EloB | DRSC16663 |
| 1.34e5 | 4561 | inactive | sfl | DRSC08828 |
| 1.27e5 | 5436 | inactive | sfl | DRSC08830 |
| 1.17e5 | 6306 | inactive | Nup43 | DRSC16279 |
| 1.43e5 | 5956 | inactive | Rrp42 | DRSC07161 |
| 75893 | 3570 | inactive | Amyrel | DRSC05920 |
| 1.43e5 | 8474 | inactive | Pss | DRSC11757 |
| 50399 | 3215 | inactive | CG14624 | DRSC18634 |
| 7491 | 800 | inactive | l(1)G0320 | DRSC18255 |
| 62273 | 3608 | inactive | CG41520 | DRSC21102 |
| 1.36e5 | 6687 | inactive | CG41520 | DRSC21103 |
| 1.58e5 | 5595 | inactive | Jon25Biii | DRSC03115 |
| 1.39e5 | 4925 | inactive | hpRNA:CR18854 | DRSC02702 |
| 76519 | 3215 | inactive | Mov10 | DRSC07012 |
| 1.62e5 | 6051 | inactive | CG31933 | DRSC00457 |
| 1326 | 920 | inactive | alph | DRSC15398 |
| 72782 | 3618 | inactive | CG10226 | DRSC09715 |
| 59598 | 2871 | inactive | AnxB9 | DRSC14111 |
| 1.00e5 | 4111 | inactive | firl | DRSC02428 |
| 8365 | 724 | inactive | CG15742 | DRSC19708 |
| 1.19e5 | 6115 | inactive | PlexB | DRSC17177 |
| 1.35e5 | 4291 | inactive | CG14042 + SP555 | DRSC02367 |
| 1.46e5 | 5115 | inactive | CG14042 + SP555 | DRSC03428 |

Entries listed so far whose gene name starts with A or a:
| E2F firefly, rep 1 | Renilla normaliser, rep 1 | Call | target | dsRNA |
| --- | --- | --- | --- | --- |
| 75893 | 3570 | inactive | Amyrel | DRSC05920 |
| 1326 | 920 | inactive | alph | DRSC15398 |
| 59598 | 2871 | inactive | AnxB9 | DRSC14111 |

The listing continues.
| E2F firefly, rep 1 | Renilla normaliser, rep 1 | Call | target | dsRNA |
| --- | --- | --- | --- | --- |
| 1.23e5 | 4941 | inactive | Dgk | DRSC05064 |
| 1.41e5 | 6695 | inactive | Dgk | DRSC05065 |
| 1.29e5 | 4197 | inactive | Dgk | DRSC06171 |
| 1.55e5 | 4950 | inactive | Dgk | DRSC06782 |
| 1.13e5 | 6414 | inactive | ng1 | DRSC18802 |
| 38228 | 3292 | inactive | RpL13 | DRSC03416 |
| 1.05e5 | 5510 | inactive | CG14327 | DRSC14806 |
| 1.08e5 | 3929 | inactive | CG32374 | DRSC10986 |
| 90488 | 3452 | inactive | Cdc37 | DRSC08648 |
| 1.72e5 | 5739 | inactive | CG31635 | DRSC02273 |
| 1.39e5 | 5298 | inactive | CG31635 | DRSC02274 |
| 1.25e5 | 3774 | inactive | CG34454 | DRSC07864 |
| 79357 | 3293 | inactive | CG6415 | DRSC02954 |
| 1.02e5 | 4590 | inactive | CG33272 | DRSC09116 |
| 56026 | 3520 | inactive | CG33110 | DRSC14694 |
| 1.04e5 | 5202 | inactive | CG33110 | DRSC16137 |
| 1.03e5 | 4281 | inactive | Rac2 | DRSC11262 |
| 1.45e5 | 6042 | inactive | CG12992 | DRSC19512 |
| 1896 | 892 | inactive | su(w[a]) | DRSC18840 |
| 1.41e5 | 7114 | inactive | srl | DRSC12340 |
| 1.11e5 | 5861 | inactive | E(spl)mgamma-HLH | DRSC16699 |
| 1.20e5 | 20312 | inactive | His3.3A | DRSC03343 |
| 2406 | 162 | inactive | CG8237 | DRSC07119 |
| 2.83e5 | 8108 | inactive | mei-41 | DRSC20350 |
| 72733 | 2599 | inactive | CG11334 | DRSC14066 |
| 55795 | 4173 | inactive | CG11334 | DRSC14302 |
| 4651 | 780 | inactive | Bx42 | DRSC17743 |
| 1.39e5 | 5129 | inactive | CG5084 | DRSC06913 |
